# Laboratory results as given in the supplement of paper PMC11348887.
# Counter-ions that a name gives are not always drawn. This is one part of the list. Most values lie at the level of the controls, where differences are scatter.
# What was measured:
# Conditions in all cases: 5 µM; treatment: days 7-14 after plating, readout day 21
# [1] = system: hPSC-derived cortical neurons (WA09); assay: nucleus area z-score vs screen plate; higher = larger nuclei (more mature)
# [2] = system: hPSC-derived cortical neurons (WA09); assay: total neurite length per nucleus (MAP2) z-score; higher = more neurite growth
# [3] = system: hPSC-derived cortical neurons (WA09); assay: nucleus roundness z-score vs screen plate; higher = rounder nuclei (more mature)
# [4] = system: hPSC-derived cortical neurons (WA09); assay: KCl-induced FOS+/EGR-1+ double-positive nuclei fraction z-score (KCl minus unstimulated); higher = stronger activity-induced IEG response
Structure (SMILES),nucleus area z-score [1],total neurite length per nucleus (z-score) [2],nucleus roundness z-score [3],KCl-induced FOS+/EGR-1+ double-positive nuclei fraction z-score [4]
Cc1cc(NC(=O)C2=C(O)c3ccccc3S(=O)(=O)N2C)no1 [Isoxicam],0.611,0.411,-0.0401,0.198
C[C@@H]1O[C@@H]1P(=O)(O)O [Fosfomycin Tromethamine],0.7,0.337,0.956,0.942
COc1cc(-c2ncn(/C=C\C(=O)OC(C)C)n2)cc(C(F)(F)F)c1,-5.99,-0.54,-3.06,0.0442
O=C1O[C@H]([C@@H](O)CO)C([O-])=C1O.[Na+] [Sodium ascorbate],0.425,0.546,0.0315,1.21
O=C(c1ccc(OCCN2CCCCC2)cc1)c1c(-c2ccc(O)cc2)sc2cc(O)ccc12 [Raloxifene HCl],0.972,-1.6,0.149,0.0885
CCC(C)(C)C(=O)O[C@H]1C[C@@H](C)C=C2C=C[C@H](C)[C@H](CC[C@@H]3C[C@@H](O)CC(=O)O3)[C@H]21 [Simvastatin],-1.12,-0.957,-0.00856,-2.96
COc1ccc([C@H]2CNC(=O)C2)cc1OC1CCCC1 [S- (+)-Rolipram],0.335,0.548,0.65,0.155
COc1c(N2CCNC(C)C2)c(F)cc2c(=O)c(C(=O)O)cn(C3CC3)c12 (configuration not stated) [Gatifloxacin],0.229,1,1.3,1.88
CNC1CCC(N(Cc2cccc(-c3ccncc3)c2)C(=O)c2sc3ccccc3c2Cl)CC1 (configuration not stated) [Smoothened Agonist (SAG) HCl],-3.37,-0.39,-0.481,0.273
CCC[C@H](NC(=O)[C@@H]1[C@H]2CCC[C@H]2CN1C(=O)[C@@H](NC(=O)[C@@H](NC(=O)c1cnccn1)C1CCCCC1)C(C)(C)C)C(=O)C(=O)NC1CC1 [Telaprevir (VX-950)],0.442,-0.243,-0.0386,-0.922
CC(C)[C@H](NC(=O)c1ccc2ccccc2n1)C(=O)N[C@@H](CC(=O)O)C(=O)COc1c(F)cccc1F,-0.514,-0.15,-0.505,-0.325
CCCCc1nc(Cl)c(CO)n1Cc1ccc(-c2ccccc2-c2nnn[nH]2)cc1 [Losartan Potassium (DuP 753)],-0.704,0.631,0.0365,0.237
CCc1cc(C(N)=S)ccn1 [Ethionamide],0.0195,1.68,0.644,0.529
CC#CC(=O)N1CC[C@@H](n2c(=O)n(-c3ccc(Oc4ccccc4)cc3)c3c(N)ncnc32)C1,1.77,-0.254,-1.76,-0.183
C/C(=C\C(=O)Nc1ccccc1C(=O)O)c1ccc2ccccc2c1,-0.0609,0.82,0.624,1.03
CC(C)=CCC/C(C)=C/CC/C(C)=C/CSc1ccccc1C(=O)O [Salirasib],0.822,-0.527,-0.488,0.524
O=C(c1ccc(Cl)cc1Cl)n1nnc2ccccc21,0.33,1.1,1.37,0.348
CCN(CC)CCN(Cc1ccc(-c2ccc(C(F)(F)F)cc2)cc1)C(=O)Cn1c(SCc2ccc(F)cc2)nc(=O)c2c1CCC2,-13.2,-3.54,-1.52,-0.418
NC(=O)c1cccnc1 [Nicotinamide (Vitamin B3)],0.443,-0.964,-1.22,0.128
Cn1cc(-c2cnn3c(N)c(Br)c([C@@H]4CCCNC4)nc23)cn1,-0.312,1.94,2.44,1.91
O=C(Cc1ccc(-c2ccc(OCCN3CCOCC3)cc2)cn1)NCc1ccccc1,-15.5,-5.36,-6.99,-2.58
COC1CCN(C(=O)c2cc(Cc3n[nH]c(=O)c4ccccc34)ccc2F)CC1,0.303,-0.909,-0.744,-0.461
O=c1cc(-c2ccc(O)c(O)c2)oc2cc(O)cc(O)c12 [Luteolin],-0.807,1.11,0.396,2.28
CC(=O)OCC(=O)[C@@]1(O)CC[C@H]2[C@@H]3CCC4=CC(=O)C=C[C@]4(C)[C@H]3[C@@H](O)C[C@@]21C [Prednisolone Acetate],-0.332,-0.282,-0.463,-0.454
CC(C)[C@H]1CC[C@H](C(=O)N[C@H](Cc2ccccc2)C(=O)O)CC1 [Nateglinide],1.18,0.826,0.104,0.858
O=S(=O)(c1ccccc1)N(CC(F)(F)F)c1ccc(C(O)(C(F)(F)F)C(F)(F)F)cc1,0.358,-0.213,-1.35,-0.253
COc1ccc(-c2oc3c(CC=C(C)C)c(O[C@@H]4O[C@H](CO)[C@@H](O)[C@H](O)[C@H]4O)cc(O)c3c(=O)c2O[C@@H]2O[C@@H](C)[C@H](O)[C@@H](O)[C@H]2O)cc1 [Icariin],0.52,-1.55,-1.52,-1.13
C[C@H](CCC(=O)O)[C@H]1CC[C@H]2[C@@H]3C(=O)C[C@@H]4CC(=O)CC[C@]4(C)[C@H]3CC(=O)[C@]12C [Dehydrocholic acid],0.496,-0.179,0.321,0.0904

# Quoted at random: 2 entries already listed
Structure (SMILES),nucleus area z-score [1],total neurite length per nucleus (z-score) [2],nucleus roundness z-score [3],KCl-induced FOS+/EGR-1+ double-positive nuclei fraction z-score [4]
CC(C)[C@H]1CC[C@H](C(=O)N[C@H](Cc2ccccc2)C(=O)O)CC1 [Nateglinide],1.18,0.826,0.104,0.858
NC(=O)c1cccnc1 [Nicotinamide (Vitamin B3)],0.443,-0.964,-1.22,0.128
